The values below come from publication PMC4242493.

Amino acid sequences for entries named in this document (tags omitted).
UniProt P61244, whole entry: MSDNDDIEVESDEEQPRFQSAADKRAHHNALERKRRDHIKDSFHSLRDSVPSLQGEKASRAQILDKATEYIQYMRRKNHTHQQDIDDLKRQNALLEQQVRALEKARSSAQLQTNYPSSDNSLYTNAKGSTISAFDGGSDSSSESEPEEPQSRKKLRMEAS

In the series the target is MaxL (UniProt P61244). In words: PBM. As to conditions: 10 nM MaxL homodimer, 4- or 5-fold reduction vs GCACGTGC; recombinant protein; protein details: C-terminal His-tag (pET21a).

Construct, isoform or probe ends are uncertain for at least one entry. The comparison behind a weaker result is the experiment's own reference, which may not be listed here.

Take “TCACGTGA (double strand) [PBM 8-mer TCACGTGA]”: the binding result is “binds more weakly”.
